Results reported in PubChem BioAssay AID1487 (National Center for Advancing Translational Sciences (NCATS), 2009).
This is one part of the list. The main result of the screen is listed elsewhere. These columns were measured beside it and carry no call. The list favours compounds with an active or inconclusive main result. Words in brackets tell the shape of the fitted curve; partial curves, single points and poor fits give uncertain potencies.

Assay: qHTS Assay for Modulators of Lamin A Splicing
Conditions: HeLa LMNA splicing GFP/RFP minigene ratio, 48 h
How it was run: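 S3 HeLa cells stably expressing lamin A-EGFP splicing minigene plus DsRed2, 600 cells/well, 48 h compound exposure at 37C. Laser-scanning cytometry; analysed as GFP (500-530 nm)/RFP (575-640 nm) total intensity ratio; 0.5% DMSO vehicle.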

[1] = measured here: GFP splicing reporter channel
[2] = measured here: RFP viability control channel

Row | Structure (SMILES) | AC50 [1] | AC50 [2]
1 | CC(C)COC(=O)c1ccc(N)cc1 | 10 µM [rising, partial curve, poor fit] | 
2 | Cc1ccc(S(=O)(=O)Nc2ccc(-c3csc(-c4ccccc4)n3)cc2)cc1 |  | 14.1 µM [rising, partial curve, poor fit]
3 | COc1cc(/C=N/Nc2nc(=O)[nH]nc2C)cc(OC)c1O |  | 1.58 µM [rising, single point]
4 | CC(=O)Nc1ccc(NC(=S)NC(=O)/C=C/c2ccc(Cl)cc2)cc1 | 22.4 µM [falling, single point] | 
5 | CCCn1c(N)c(Sc2ccccc2)c(=O)n(CCC)c1=O |  | 12.6 µM [rising, single point]
6 | C(=C\CSc1nnnn1-c1ccccc1)/CSc1nnnn1-c1ccccc1 | 14.1 µM [rising, single point] | 12.6 µM [rising, single point]
7 | CCNc1ccc(Br)cc(C(=O)/C=C/c2ccc3c(c2)OCO3)c1=O | 15.8 µM [falling, single point] | 35.5 µM [falling, single point]
8 | CC(C)Cn1c(N)c(C(=O)COC(=O)c2ccc3ccccc3n2)c(=O)n(C)c1=O | 11.2 µM [rising, single point] | 22.4 µM [rising, single point]
9 | COc1ccc(-c2nnc(NC(=O)c3ccc(S(=O)(=O)N4COCC4(C)C)cc3)o2)cc1 |  | 5.01 µM [rising, partial curve]
10 | O=C(C1CCCN(S(=O)(=O)c2ccccc2)C1)N1CCCc2ccccc21 (configuration not stated) |  | 10 µM [rising, partial curve]
11 | O=C1CCC(c2ccccc2)=NN1Cc1c(F)cccc1Cl | 35.5 µM [falling, single point] | 
12 | Oc1ccc(CN2CCc3ccccc3C2)c2cccnc12 |  | 10 µM [rising, partial curve]
13 | Cc1ccc(-c2[nH]c3ccccc3c2SCCNC(=O)c2ccc(S(=O)(=O)N3CCOCC3)cc2)cc1 | 6.31 µM [rising, partial curve] | 11.2 µM [rising, partial curve]
14 | CC(NC(=O)C(=O)NN=C1CCCC1)c1ccccc1 (configuration not stated) |  | 0.631 µM [falling, partial curve]
15 | COc1ccc(C(=O)Nc2ccccc2-c2ccccc2)cc1Cl |  | 31.6 µM [rising, single point]
16 | COc1ccccc1C1C2=C(N=c3s/c(=C/c4cccc(OCC(=O)O)c4)c(=O)n31)c1ccccc1CC2 (configuration not stated) |  | 0.1 µM [falling, full curve, poor fit]
17 | O=C(CCC(=O)c1ccc(Oc2ccccc2)cc1)Nc1cccc(Cl)c1Cl |  | 35.5 µM [rising, single point]
18 | O=C(c1cn(CC(=O)N2CCCC2)c2ccccc12)C1CCCCC1 |  | 20 µM [rising, single point]
19 | CCOC(=O)C1=C(C)Nc2ccccc2N=C1N |  | 0.0126 µM [falling, full curve, poor fit]

A different layout for three compounds above.
Row,Structure (SMILES),AC50 [1],AC50 [2]
6,C(=C\CSc1nnnn1-c1ccccc1)/CSc1nnnn1-c1ccccc1,"14.1 µM [rising, single point]","12.6 µM [rising, single point]"
12,Oc1ccc(CN2CCc3ccccc3C2)c2cccnc12,,"10 µM [rising, partial curve]"
14,CC(NC(=O)C(=O)NN=C1CCCC1)c1ccccc1 (configuration not stated),,"0.631 µM [falling, partial curve]"

(listing goes on)

Row | Structure (SMILES) | AC50 [1] | AC50 [2]
20 | COc1ccc(F)cc1S(=O)(=O)N1CCN(Cc2ccc3c(c2)OCO3)CC1 |  | 12.6 µM [rising, single point]
21 | CCN1CCN(Cc2nc3cc(NC(=O)c4ccccc4[N+](=O)[O-])ccc3n2CC)CC1 | 1 µM [falling, full curve, poor fit] | 
22 | Cc1nn(Cc2ccc(F)cc2)c(Cl)c1/C=N/NC(=O)c1ccccc1 | 20 µM [rising, single point] | 
23 | OCCN1CCN(C(=S)Nc2ccc(Oc3ccccc3)cc2)CC1 | 2.51 µM [falling, single point] | 2.82 µM [falling, partial curve, poor fit]
24 | Cc1ccc(C(=O)COC(=O)CNC(=O)CNC(=O)c2ccc(C)cc2)cc1 |  | 0.00794 µM [falling, full curve]
25 | CNc1ncnc2c1ncn2[C@@H]1O[C@H](CO)[C@@H](O)[C@@H]1O | 11.2 µM [falling, partial curve, poor fit] | 10 µM [falling, single point]
26 | CN(C)S(=O)(=O)c1ccc2c(c1)N(CC(=O)N1CCCCC1)CCS2 | 0.00316 µM [falling, full curve, poor fit] | 
27 | Cc1ccc[n+](CC(=O)c2ccc(-c3ccccc3)cc2)c1 |  | 0.501 µM [rising, full curve, poor fit]
28 | O=C(C1CCN(c2ccc(N3CCOCC3)nn2)CC1)N1CCc2ccccc2C1 | 11.2 µM [rising, partial curve, poor fit] | 11.2 µM [rising, partial curve, poor fit]
29 | CC(=O)Nc1ccc(NC(=O)C(Cc2ccccc2)N2Cc3ccccc3C2=O)cc1 (configuration not stated) | 0.562 µM [falling, partial curve] | 0.1 µM [falling, partial curve]
30 | CCN1C(=O)c2cccc3c(NC(=O)C4CCCCC4)ccc1c23 |  | 17.8 µM [rising, partial curve, poor fit]
31 | O=C(CCc1ccccc1)OCCN1CCOCC1 | 15.8 µM [rising, single point] | 
32 | NC(=O)c1nsc(C(=O)N(CC(=O)NCc2ccc3c(c2)OCO3)C2CCCC2)c1N | 35.5 µM [rising, single point] | 
33 | CCOc1ccc(S(=O)(=O)NCc2ccccc2)cc1C(N)=O |  | 35.5 µM [rising, single point]
34 | CC(C)Oc1ccc(CNC(=S)N/N=C/c2cccnc2)cc1 | 14.1 µM [rising, partial curve, poor fit] | 14.1 µM [rising, partial curve]
35 | COC(=O)NNC(=O)COc1cc(C)c(Br)cc1C(C)C | 14.1 µM [rising, single point] | 11.2 µM [rising, single point]
36 | COCC(C)N1C(=O)Cc2c1nc(N)c1c(N)nc(N3CCN(c4ccccc4F)CC3)c(C#N)c21 (configuration not stated) |  | 0.355 µM [falling, full curve]
37 | CCC1OC(=O)C[C@H](O)C(C)[C@@H](O[C@@H]2OC(C)C(O)C(N(C)C)C2O)C(CCN2CC(C)CC(C)C2)CC(C)C(=O)/C=C/C(C)=C\[C@@H]1COC1OC(C)C(O)C(OC)C1OC (some centres not stated) | 0.0112 µM [falling, full curve, poor fit] | 14.1 µM [falling, partial curve, poor fit]
38 | CCOC(=O)CN1CC23C=CC(O2)C(C(=O)Nc2ccc(OC)cc2OC)C3C1=O (configuration not stated) | 0.0398 µM [falling, partial curve, poor fit] | 

Row | Structure (SMILES) | AC50 [1] | AC50 [2]
39 | CCn1ncc(C(=O)Nc2ccccc2C)c1C |  | 8.91 µM [rising, partial curve]
40 | COc1ccc2c(c1)SCC(=O)N2C |  | 35.5 µM [rising, single point]
41 | Cc1cccc(NCc2nnc3n2CCCCC3)c1C | 0.447 µM [rising, full curve, poor fit] | 
42 | COc1cccc(CC2(CO)CCCN(Cc3cn[nH]c3-c3cc(C)ccc3C)C2)c1 (configuration not stated) | 20 µM [falling, partial curve, poor fit] | 22.4 µM [falling, partial curve, poor fit]
43 | CN(C(=O)c1ccc2c(c1)N(Cc1ccccc1F)C(=O)c1ccccc1S2)C1CCCCC1 |  | 10 µM [rising, partial curve]
44 | Cc1ccccc1C(=O)NCC(c1cccnc1)N1CCc2ccccc21 (configuration not stated) | 0.0141 µM [falling, full curve, poor fit] | 
45 | O=C(c1ccc(-c2ccc(Cl)cc2)o1)N1CCN(c2ccc([N+](=O)[O-])cc2Cl)CC1 |  | 5.62 µM [rising, full curve]
46 | COc1ccc(CC(=O)Nc2nnc(SCc3ccccc3)s2)cc1S(=O)(=O)N1CCOCC1 |  | 15.8 µM [rising, single point]
47 | CCC(=O)N(Cc1c(C)nn(-c2ccccc2)c1Cl)c1ccc(Cl)cc1 | 12.6 µM [rising, single point] | 28.2 µM [rising, single point]
48 | COCCN(CCOC)C(=O)COC(=O)c1ccc(Cl)c(S(=O)(=O)N(C)c2ccccc2)c1 |  | 35.5 µM [rising, single point]
49 | COC(=O)c1ccc(CN2CCC(CO)(Cc3cccc(OC)c3)CC2)cc1 |  | 0.398 µM [falling, full curve]
50 | COc1ccc(NC(=O)C2(c3cccs3)CCOCC2)cc1Cl |  | 0.00708 µM [falling, full curve, poor fit]
51 | NC(=O)COc1ccc(NC(=O)c2ccccc2-c2ccccc2)cc1 | 0.00708 µM [rising, full curve, poor fit] | 
52 | COCCn1c(-c2ccc(Cl)cc2)cnc1SCC(=O)NCCc1ccc(OC)c(OC)c1 | 35.5 µM [rising, single point] | 35.5 µM [rising, single point]
53 | Cc1cc(Nc2sc(C(=O)c3ccc(F)cc3)c(N)c2C(=O)Nc2ccc(F)cc2)ccc1Cl | 2.82 µM [rising, partial curve] | 3.55 µM [rising, partial curve]
54 | Cc1ccc(C(=O)NC2(C(F)(F)F)NC(=O)N(c3ccc(Cl)cc3)C2=O)cc1 (configuration not stated) | 28.2 µM [rising, single point] | 15.8 µM [rising, partial curve]
55 | Cc1ccc(Cl)cc1N1CCN(CCCNc2ncnc3onc(-c4ccc(F)cc4)c23)CC1 | 35.5 µM [falling, single point] | 
56 | O=C(CNc1ccccc1)NN=C1CCCC1 |  | 11.2 µM [rising, partial curve]
